Experimental findings from PMC3775441 are described below.

By UniProt entry, the sequences of proteins in these tests, tags left out.
UniProt O35718: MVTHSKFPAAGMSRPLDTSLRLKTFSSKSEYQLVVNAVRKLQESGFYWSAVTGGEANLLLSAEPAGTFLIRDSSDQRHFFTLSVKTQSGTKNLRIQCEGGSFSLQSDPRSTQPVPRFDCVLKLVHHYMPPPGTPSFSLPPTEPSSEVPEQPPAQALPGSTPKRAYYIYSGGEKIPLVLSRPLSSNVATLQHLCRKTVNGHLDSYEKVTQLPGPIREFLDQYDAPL
UniProt P42227: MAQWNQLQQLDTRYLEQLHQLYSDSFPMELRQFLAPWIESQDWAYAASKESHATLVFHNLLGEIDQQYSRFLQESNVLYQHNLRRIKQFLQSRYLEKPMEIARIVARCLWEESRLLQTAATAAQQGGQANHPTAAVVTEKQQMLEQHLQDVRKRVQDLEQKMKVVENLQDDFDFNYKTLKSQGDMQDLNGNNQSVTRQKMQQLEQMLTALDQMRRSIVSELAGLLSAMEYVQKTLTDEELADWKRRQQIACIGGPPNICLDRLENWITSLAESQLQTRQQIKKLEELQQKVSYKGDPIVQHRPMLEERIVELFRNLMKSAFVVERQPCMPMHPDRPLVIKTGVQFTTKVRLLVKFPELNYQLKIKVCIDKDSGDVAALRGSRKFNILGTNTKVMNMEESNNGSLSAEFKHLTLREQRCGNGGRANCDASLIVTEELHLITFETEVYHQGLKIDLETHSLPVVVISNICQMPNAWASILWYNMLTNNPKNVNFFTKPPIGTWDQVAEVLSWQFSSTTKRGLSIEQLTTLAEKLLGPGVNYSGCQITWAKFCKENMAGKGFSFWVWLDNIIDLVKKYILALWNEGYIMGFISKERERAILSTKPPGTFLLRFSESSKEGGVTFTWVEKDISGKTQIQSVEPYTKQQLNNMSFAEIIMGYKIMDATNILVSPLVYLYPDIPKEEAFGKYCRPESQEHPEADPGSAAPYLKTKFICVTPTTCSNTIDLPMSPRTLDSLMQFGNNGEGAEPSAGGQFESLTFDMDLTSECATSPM

Assay [1] concerns the target SOCS3 (mouse (endogenous in Raw 264.7)) (UniProt O35718). As to the kind of experiment: co-IP; Raw 264.7 cells, 10 min after 10 ug/mL E. coli LPS; anti-SOCS3 (sc-9023) covalently immobilised on amine-reactive columns (Pierce Co-IP kit), 500 ug lysate, 12 h at 4°C; blot for total STAT3.
Assay [2] has the same target. As to the kind of experiment: co-IP; Raw 264.7 cells, 60 min after 10 ug/mL E. coli LPS; anti-SOCS3 (sc-9023) covalently immobilised on amine-reactive columns (Pierce Co-IP kit), 500 ug lysate, 12 h at 4°C; blot for total STAT3.

No constants are given. Whether binding was seen depends on the method and setting. In cells and extracts the contact can be indirect. Some results given as binding are weak or reduced against the parent protein; the word gives no strength.

Consider STAT3 (from UniProt P42227 1-770), for which the binding result in assay [1] is recorded as “no binding (condition: 10 min after LPS stimulation)”; in assay [2] it was “binds”.
